The target in assay [1] is HA-Arr (HA-tagged wild-type mono-ADP-ribosyltransferase Arr) (M. smegmatis) (UniProt A0QRS5). Kind of assay: co-IP; whole cell lysates of M. smegmatis strains expressing HA-Arr or HA-Arr point mutants (ΔrplK::FLAG-L11 strains by the legend), NP-40 buffer (10 mM sodium phosphate pH 8.0, 150 mM NaCl, 0.25% NP-40), monoclonal anti-HA agarose overnight at 4°C, eluted with HA peptide; blots with anti-RNAP β, anti-FLAG, anti-HA.

Protein sequences, listed by entry. Tags and fused reporters are not part of them.
UniProt A0QS45: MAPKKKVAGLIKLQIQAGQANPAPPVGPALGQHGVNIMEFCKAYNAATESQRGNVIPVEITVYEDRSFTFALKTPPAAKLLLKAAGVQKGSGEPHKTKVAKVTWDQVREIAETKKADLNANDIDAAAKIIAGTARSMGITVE
UniProt P60281: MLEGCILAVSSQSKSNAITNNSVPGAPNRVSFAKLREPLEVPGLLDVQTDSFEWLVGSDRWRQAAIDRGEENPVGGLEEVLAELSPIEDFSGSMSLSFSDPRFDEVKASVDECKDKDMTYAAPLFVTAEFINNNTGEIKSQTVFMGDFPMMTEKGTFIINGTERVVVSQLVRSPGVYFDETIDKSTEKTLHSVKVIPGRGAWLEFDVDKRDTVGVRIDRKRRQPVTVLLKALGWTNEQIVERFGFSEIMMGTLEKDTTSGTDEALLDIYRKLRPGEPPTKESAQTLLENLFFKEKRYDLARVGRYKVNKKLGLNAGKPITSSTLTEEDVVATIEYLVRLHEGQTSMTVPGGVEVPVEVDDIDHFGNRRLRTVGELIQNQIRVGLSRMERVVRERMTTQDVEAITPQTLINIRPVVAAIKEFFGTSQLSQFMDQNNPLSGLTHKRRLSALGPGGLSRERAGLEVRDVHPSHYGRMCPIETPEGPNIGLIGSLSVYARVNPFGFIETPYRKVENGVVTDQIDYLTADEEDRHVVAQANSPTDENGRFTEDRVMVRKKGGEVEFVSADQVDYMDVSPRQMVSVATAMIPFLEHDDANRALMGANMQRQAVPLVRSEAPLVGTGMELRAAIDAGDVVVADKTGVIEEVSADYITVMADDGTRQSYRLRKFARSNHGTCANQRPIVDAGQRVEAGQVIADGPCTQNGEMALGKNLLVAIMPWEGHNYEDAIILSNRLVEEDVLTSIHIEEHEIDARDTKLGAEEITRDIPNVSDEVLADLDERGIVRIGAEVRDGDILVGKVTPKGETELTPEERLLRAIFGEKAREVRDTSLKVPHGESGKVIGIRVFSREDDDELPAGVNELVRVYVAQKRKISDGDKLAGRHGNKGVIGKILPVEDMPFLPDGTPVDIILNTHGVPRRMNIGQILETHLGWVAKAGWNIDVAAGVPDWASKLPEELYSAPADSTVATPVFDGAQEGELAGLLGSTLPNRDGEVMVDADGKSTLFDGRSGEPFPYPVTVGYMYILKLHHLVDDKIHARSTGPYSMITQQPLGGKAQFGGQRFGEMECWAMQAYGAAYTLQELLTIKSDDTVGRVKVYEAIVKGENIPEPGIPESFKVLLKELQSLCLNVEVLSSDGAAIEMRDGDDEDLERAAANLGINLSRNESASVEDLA

In assay [2] the target is LexA DNA binding domain-Arr (yeast two-hybrid bait) (M. smegmatis) (UniProt A0QRS5). Kind of assay: two-hybrid; LexA system in S. cerevisiae: bait LexA BD-Arr (pEG202), prey AD-L11 (pJSC401), mating of EGY48 and W303a, lacZ reporter pSH18-34, blue colour on X-gal.

These are yes or no findings as the source states them, for the method shown. Binding calls can cover weak binding; strength is not graded here. For part of these data: Binding seen in cells or lysates may run through a third protein.

We go through three substances from paper PMC3138739.

Regarding “FLAG-L11 (N-terminally FLAG-tagged ribosomal protein L11) (from UniProt A0QS45 1-142)”, the binding entry in assay [1] was “binds”.

Take “RNAP β subunit (from UniProt P60281 1-1169)”: in assay [1], the binding entry was “binds”.

Regarding “activation domain-L11 (yeast two-hybrid prey) (from UniProt A0QS45 1-142)”, the binding entry in assay [2] was “binds”.
